AC50 data for 36 compounds are collected here from PubChem BioAssay AID1487 (National Center for Advancing Translational Sciences (NCATS), 2009).

Each structure is given as a SMILES string. Some of the results follow. Shown are side measurements of this screen, not its main read-out; they come without a call. The list favours compounds with an active or inconclusive main result. Potencies come from curve fits of mixed quality, noted in brackets.

The nature of the experiment: qHTS Assay for Modulators of Lamin A Splicing. The following applies: HeLa LMNA splicing GFP/RFP minigene ratio, 48 h. In a few lines: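 S3 HeLa stable clones carrying a lamin A-EGFP splicing minigene plus DsRed2 were seeded at 600 cells/well in Opti-MEM with 2% FBS, pin-dosed and incubated 48 h at 37°C. Acumen cytometry (488 nm) gave the GFP/RFP total-intensity ratio.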
A general note: qHTS replaces the single test concentration by a dilution series.

[1] abbreviates: measured here: GFP splicing reporter channel.
[2] abbreviates: measured here: RFP viability control channel.

The AC50 is the midpoint of the concentration-response curve, whichever way the signal moves. On to `Cc1cc(C)n2c(Br)c(CN3CCCC(C)C3)nc2n1` (stereo not drawn), for which, under setting [1], the AC50 is 0.00891 µM [falling, full curve, poor fit].

On to `CCOC(=O)c1cnc2ccc(OCC)cc2c1NCc1ccccc1OC`, for which, under setting [2], the AC50 was 1 µM [rising, full curve, poor fit].

Turning to `COc1cc(CNC(=O)c2cnc3c(-c4cccc(C)c4)c(C)nn3c2C)cc(OC)c1OC`, the AC50 under setting [1] was 5.01 µM [rising, partial curve, poor fit].

With `COc1ccc(-c2cc3ccc(O)c(CN4CCN(C)CC4)c3oc2=O)cc1OC`, the concentration at half-maximal activity (AC50) by setting is: under setting [1], 10 µM [falling, partial curve]; under setting [2], 7.08 µM [falling, partial curve]. `Cc1ccc(S(=O)(=O)N(C)c2ccc(OCC(=O)Nc3nc4c(ccc5ccccc54)s3)cc2)cc1`: the AC50 under setting [2] is 12.6 µM [rising, single point].

For the compound `CC(=O)Oc1cc(C(C)C)c(OCCN(C)C)cc1C`, the AC50 was 12.6 µM [falling, single point] under setting [1] and 3.16 µM [rising, single point] under setting [2]. For the compound `COc1cccc(NC(=O)Cn2nnc(-c3ccccc3N)n2)c1`, the AC50 under setting [2] was 6.31 µM [rising, full curve, poor fit].

Regarding `Cc1ccc(-c2ccc(C3C(C#N)=C(N)Oc4n[nH]c(C)c43)o2)cc1` (stereo not drawn), the half-maximal activity concentration (AC50) is 35.5 µM [falling, single point] under setting [1] and 28.2 µM [falling, partial curve] under setting [2]. Turning to `O=C(NC1CC(=O)N(c2ccc(Cl)cc2)C1)c1cc2ccccc2o1` (stereo not drawn), the AC50 under setting [1] is 0.00501 µM [falling, full curve, poor fit] and the AC50 under setting [2] is 0.0282 µM [falling, full curve].

Take `O=c1cc(CSc2nnc(COc3ccc(Cl)cc3)o2)c2ccccc2[nH]1`: under setting [2], the AC50 is 31.6 µM [rising, single point]. Still for that read-out and setting: the same measure for `Cc1nc2scc(-c3ccccc3)c2c(=O)n1/N=C/c1ccco1`: 12.6 µM [rising, single point]. `CC(=O)Oc1c(C(=O)c2nnc(C)o2)c(=O)n(C)c2ccccc12`: the concentration at half-maximal activity (AC50) is 4.47 µM [falling, single point] under setting [1] and 3.98 µM [falling, single point] under setting [2].

`COc1ccc(Cc2nc(-c3ccc(-n4cccc4)cc3)no2)cc1OC`: the AC50 under setting [2] was 6.31 µM [rising, single point].

In the case of `COc1ccc2[nH]c(-c3cccc(F)c3)cc(=O)c2c1`, the AC50 under setting [2] was 1.12 µM [rising, full curve]. On to `CCOC(=O)c1cccc(NC(=O)CN(C)S(=O)(=O)c2cnc[nH]2)c1`, for which, under setting [1], the AC50 was 0.0631 µM [rising, full curve, poor fit].

Consider `COC(=O)c1cc2c(-c3ccccc3)c(C)c3ccccn3c-2c1C(=O)OC`, for which the AC50 under setting [2] was 17.8 µM [rising, single point]. As to `Cn1c(SCc2nc3ccccc3[nH]2)nnc1-c1cccnc1`, the AC50 reads like this: under setting [1], 5.62 µM [rising, single point]; under setting [2], 3.98 µM [rising, single point].

For `CC1=[N+](C)c2ccc3ccccc3c2C1(C)C`, the AC50 under setting [1] is 6.31 µM [rising, full curve] and the AC50 under setting [2] is 3.16 µM [rising, full curve, poor fit].

For the compound `C/C(=N\NC(=O)Cc1cccc2ccccc12)c1ccncc1`, under setting [1], the AC50 is 25.1 µM [rising, single point]. For `CCOc1cc(C=O)cc(Br)c1OCC(=O)NCCc1ccccc1`, the AC50 under setting [2] is 35.5 µM [rising, single point]. Same read-out and setting: the same measure for `CC(C)CCN1CCN(Cc2ccc(N3CCNC3=O)cc2)CC1CCO` (stereo not drawn): 0.02 µM [falling, full curve, poor fit]; for `COc1ccc(CCN(C(=O)Cn2nnc3ccccc32)C(C(=O)NCC2CCCO2)c2ccncc2)cc1OC` (stereo not drawn): 6.31 µM [falling, partial curve, poor fit]. As to `Oc1cccc(C(O)CNCc2ccc(-c3ccccc3)cc2)c1` (stereo not drawn), the AC50 under setting [2] was 10 µM [rising, partial curve]. Consider `CN1CCN(c2ccc([N+](=O)[O-])cc2C(=O)c2ccc(Br)cc2)CC1`, for which the AC50 under setting [1] was 10 µM [falling, partial curve, poor fit] and the AC50 under setting [2] was 7.94 µM [falling, partial curve]. Take `CCOc1cc(NC(=S)NCCCN2CCOCC2)c(OCC)cc1NC(=O)C(C)C`: the AC50 by setting is: under setting [1], 12.6 µM [falling, single point]; under setting [2], 22.4 µM [falling, partial curve]. For `Cc1ccc(C)c(N(C(=O)CCC(=O)Nc2cc(C)on2)C(C(=O)NC2CCCC2)c2ccco2)c1` (stereo not drawn), the AC50 runs as follows: under setting [1], 15.8 µM [rising, partial curve, poor fit]; under setting [2], 15.8 µM [rising, partial curve, poor fit].

`COc1cccc(-c2ccc3ncnc(NC4CCNCC4)c3c2)c1`: the half-maximal activity concentration (AC50) under setting [2] was 14.1 µM [rising, single point]. On the same count and under the same terms, the figure for `C=C(C)C1CC=C(C)/C(=N/NC(=O)c2ccoc2C)C1` (stereo not drawn) is 35.5 µM [rising, single point]. The same measure, in the same setting: the figure for `Cc1ccc2c(c1)c1c(n2CC(O)Cn2c(C)nc3ccccc32)C(=O)CCC1` (stereo not drawn) is 0.794 µM [rising, partial curve]; for `Nc1c(Cl)ncnc1N/N=C/c1ccccn1` it is 5.01 µM [rising, full curve]. In the case of `CCOc1ccc(NC(=O)c2c(NCc3cc(OC)c(OC)cc3OC)sc3c2CCCC3)cc1`, the AC50 under setting [1] is 2.24 µM [falling, single point]. For the compound `O=C(O)CSc1nc(-c2ccccc2)nc2c1oc1ccccc12`, the AC50 under setting [1] was 14.1 µM [rising, single point]. Consider `COc1cccc(CNC(=O)C(c2ccc(Cl)cc2)C(C)C)c1` (stereo not drawn), for which the half-maximal activity concentration (AC50) runs as follows: under setting [1], 11.2 µM [rising, single point]; under setting [2], 14.1 µM [rising, single point]. On to `Cc1ccc2nc(Nc3nc(-c4ccccc4)cc(=O)[nH]3)nc(C)c2c1`, for which the AC50 was 12.6 µM [falling, partial curve] under setting [1] and 15.8 µM [falling, partial curve] under setting [2]. As for `CCOc1cccc2cc(-c3nnc(NCc4ccco4)s3)c(=O)oc12`, the AC50 under setting [2] was 7.08 µM [falling, partial curve]. As to `COc1ccc(N2CCN(C(=O)c3cccc(Br)c3)CC2)c([N+](=O)[O-])c1`, the AC50 under setting [1] was 22.4 µM [falling, partial curve, poor fit].
